# Experiments:
# Assay in all cases: minimum inhibitory concentration (MIC), method of diffusion in agar
# Format in all cases: cell-based
# [1] = tested on: A.actinomycetemcomitans
# Excerpt: (§1) The anti-microbial activity of a certain number of active ingredients was obtained by study of the minimum inhibitory concentrations (MIC) of the respective agents (by the method of diffusion in agar) against bacteria representing periodontal disease.
# [2] = tested on: P.gingivalis
# Excerpt: as §1
# [3] = tested on: P.intermedia
# Excerpt: as §1
smiles,measurement,setting,value
"CCCCCCCCCCCCCCCC[n+]1ccccc1 [CPC, cetylpyridinium chloride]",Minimum inhibitory concentration,[1],>0.02%
same,Minimum inhibitory concentration (%),[2],0.0006%
same,"Minimum inhibitory concentration (MIC, % concentration)",[3],0.0003%
